Assay [1] deals with β-arrestin2 (mouse (endogenous in primary astrocytes)) (UniProt Q91YI4). Description: co-IP; endogenous proteins; lysates of primary astrocytes treated with IL-6 (300 ng/mL) and UNC9995 (10 μM) or not, immunoprecipitated with anti-STAT3 or with anti-β-arrestin2 antibody, immunoblotting.
For assay [2], the target named is STAT3 (mouse (endogenous in primary astrocytes)) (UniProt P42227). The description is as above.
Assay [3] shares this target. The experiment in a line: proximity ligation; Duolink PLA in fixed primary astrocytes pretreated with UNC9995 for 1 h and then stimulated with IL-6 (300 ng/mL) for 24 h; rabbit anti-β-arrestin2 and mouse anti-STAT3 primary antibodies.
Assay [4] concerns the target Flag-tagged STAT3 (in primary astrocytes) (UniProt P42227). Description: co-IP; Flag-tagged STAT3 transfected in primary astrocytes treated with IL-6 (300 ng/mL) and UNC9995 or not; lysates immunoprecipitated with anti-flag antibody, immunoblotting.
For assay [5], the target named is Flag-tagged STAT3 (UniProt P42227). The experiment in a line: co-IP; Flag-tagged STAT3 and β-arrestin2 pcDNA3.1 constructs co-transfected in HEK293T cells; lysates immunoprecipitated with anti-Flag antibody, immunoblotting.

Protein sequences, listed by entry. Tags and fused reporters are not part of them.
UniProt Q91YI4: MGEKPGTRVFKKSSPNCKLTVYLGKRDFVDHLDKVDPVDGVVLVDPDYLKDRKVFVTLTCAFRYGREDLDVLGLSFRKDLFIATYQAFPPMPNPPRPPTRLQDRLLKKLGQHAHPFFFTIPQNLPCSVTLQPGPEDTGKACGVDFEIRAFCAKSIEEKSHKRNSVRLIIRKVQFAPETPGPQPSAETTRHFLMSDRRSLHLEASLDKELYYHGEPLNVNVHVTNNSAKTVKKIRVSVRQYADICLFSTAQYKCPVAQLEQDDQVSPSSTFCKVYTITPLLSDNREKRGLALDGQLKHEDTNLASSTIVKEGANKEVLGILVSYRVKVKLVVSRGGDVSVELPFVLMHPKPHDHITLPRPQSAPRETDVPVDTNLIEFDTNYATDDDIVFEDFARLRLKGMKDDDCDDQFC
UniProt P42227: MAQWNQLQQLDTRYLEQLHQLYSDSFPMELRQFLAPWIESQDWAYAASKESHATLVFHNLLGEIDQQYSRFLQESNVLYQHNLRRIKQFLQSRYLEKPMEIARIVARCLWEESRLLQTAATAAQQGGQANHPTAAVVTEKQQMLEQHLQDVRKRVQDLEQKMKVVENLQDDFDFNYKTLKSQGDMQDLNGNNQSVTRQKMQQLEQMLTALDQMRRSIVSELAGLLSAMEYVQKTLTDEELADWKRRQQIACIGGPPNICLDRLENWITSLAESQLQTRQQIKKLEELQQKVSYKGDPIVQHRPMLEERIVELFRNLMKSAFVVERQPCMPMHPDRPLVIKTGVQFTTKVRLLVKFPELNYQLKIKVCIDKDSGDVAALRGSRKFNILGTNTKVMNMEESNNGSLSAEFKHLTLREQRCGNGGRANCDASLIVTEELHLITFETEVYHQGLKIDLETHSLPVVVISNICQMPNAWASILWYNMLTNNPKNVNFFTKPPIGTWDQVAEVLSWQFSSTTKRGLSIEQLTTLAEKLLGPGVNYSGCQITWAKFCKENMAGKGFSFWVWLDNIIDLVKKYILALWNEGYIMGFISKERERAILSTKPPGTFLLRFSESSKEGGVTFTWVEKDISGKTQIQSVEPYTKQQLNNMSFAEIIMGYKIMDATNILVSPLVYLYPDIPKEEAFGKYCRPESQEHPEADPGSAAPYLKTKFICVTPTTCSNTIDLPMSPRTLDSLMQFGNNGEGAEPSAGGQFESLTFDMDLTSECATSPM

No constants are given. Whether binding was seen depends on the method and setting. Binding seen in cells or lysates may run through a third protein. Some results given as binding are weak or reduced against the parent protein; the word gives no strength.

As to STAT3 (from UniProt P42227 1-770), the binding result in assay [1] is given as “binds”. β-arrestin2 (from UniProt Q91YI4 1-410): the binding result in assay [2], in assay [3] and in assay [4] was “binds” each time.

Turning to “β-arrestin2 (pcDNA3.1 construct) (from UniProt Q91YI4 1-410)”, the binding result in assay [5] was “binds”.

Values taken from PMC9526944.
